In the supplement of paper PMC10689618:
Structures can show the parent of a compound that is named as a salt. Some of the results follow. Many values rest on one well or one pass, so single values are uncertain.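 Labelled rat cortical synaptosomes were engulfed by primary human fetal astrocytes. Engulfment equaled a red/green ratio, corrected for calcein live-cell signal and normalized to the plate median. Compounds were toxic when calcein dropped over 30%, and reduced phagocytosis when below 70% of the median above 5 µM.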

Experiments:
Details in all cases: 24 h
Human fetal astrocytes [1] = assay: loss of total cells relative to no-compound high-control median (toxicity); higher = more toxic (fewer cells)
Human fetal astrocytes [2] = assay: as above; remark: listed apart in the source
Human fetal astrocytes [3] = assay: synaptosome phagocytosis (pHrodo/calcein intensity ratio) relative to plate median of data wells; higher = more phagocytosis
Human fetal astrocytes [4] = assay: as above; remark: listed apart in the source

Structure (SMILES)	loss of total cells (Human fetal astrocytes [1]; 1.39 µM) [%]	loss of total cells (Human fetal astrocytes [1]; 2.78 µM) [%]	loss of total cells (Human fetal astrocytes [1]; 5.56 µM) [%]	loss of total cells (Human fetal astrocytes [1]; 11.11 µM) [%]	loss of total cells (Human fetal astrocytes [1]; 22.22 µM) [%]	loss of total cells (Human fetal astrocytes [2]; 1.39 µM) [%]	loss of total cells (Human fetal astrocytes [2]; 2.78 µM) [%]	loss of total cells (Human fetal astrocytes [2]; 5.56 µM) [%]	loss of total cells (Human fetal astrocytes [2]; 11.11 µM) [%]	loss of total cells (Human fetal astrocytes [2]; 22.22 µM) [%]	synaptosome phagocytosis (Human fetal astrocytes [3]; 1.39 µM) [%]	synaptosome phagocytosis (Human fetal astrocytes [3]; 2.78 µM) [%]	synaptosome phagocytosis (Human fetal astrocytes [3]; 5.56 µM) [%]	synaptosome phagocytosis (Human fetal astrocytes [3]; 11.11 µM) [%]	synaptosome phagocytosis (Human fetal astrocytes [3]; 22.22 µM) [%]	synaptosome phagocytosis (Human fetal astrocytes [4]; 1.39 µM) [%]	synaptosome phagocytosis (Human fetal astrocytes [4]; 2.78 µM) [%]	synaptosome phagocytosis (Human fetal astrocytes [4]; 5.56 µM) [%]	synaptosome phagocytosis (Human fetal astrocytes [4]; 11.11 µM) [%]	synaptosome phagocytosis (Human fetal astrocytes [4]; 22.22 µM) [%]
CN(C)CCC=C1c2ccccc2CCc2ccccc21 [Amitriptyline hydrochloride]	-8.8	-8.4	-22.6	-4.9	-4.9	-1.7	-10.7	-12.3	-31.3	-2.3	79.1	89.5	74.6	151	53.7	114	81.2	97.8	73	114
CCN(CC)CCNC(=O)c1cc(Cl)c(N)cc1OC [Metoclopramide hydrochloride]	-11.8	-8.6	8	12.4	18.7	-15.8	-8.8	-4.5	-2.3	0	84.5	79.5	89.9	101	78.6	116	131	87.4	96.8	103
COc1ccc(C2CNC(=O)C2)cc1OC1CCCC1 (stereo not given) [Rolipram]	-11.5	-24.9	-16.3	0.4	-36.2	-33.9	27.8	7.5	29.8	0.3	91.1	130	93.1	104	113	91.8	112	102	108	101
CCC1(C)CC(=O)NC1=O (stereo not given) [Ethosuximide]	-18.8	-20.5	-20.6	-2.2	-21.6	0	-27	-6.8	-8.9	11.5	149	91	93.6	77.1	120	95	114	112	86.9	97.3
CN(C)CCC(c1ccccc1)c1ccccn1 (stereo not given) [Pheniramine maleate]	-3.4	-11.1	-10.7	-2.7	-8.2	-11.6	-14.9	6.3	-8.6	-6.8	97.1	77.8	99.3	93.8	97.7	93.7	100	96.6	78.8	128
C[N+](C)(C)CC(=O)O [Betaine hydrochloride]	3.3	-2.1	-24.4	-18.4	15.4	-22.6	-46	-1.2	-12.1	-5.3	121	69.2	88.2	67.8	87.6	130	112	98.3	81.1	111
Fc1ccc([C@@H]2CCNC[C@H]2COc2ccc3c(c2)OCO3)cc1 [Paroxetine hydrochloride hemihydrate (MW = 374.83)]	-12.1	-24.4	-4.1	-13.9	13.9	-28.2	38.9	11.8	54.8	45.2	59	131	70.9	102	52.6	89.7	85.8	69.6	68.5	54.7
N=C(N)NCCCCNC(=N)N [Arcaine sulfate]	4.4	-16.8	0.5	-25.6	-10.2	-24.6	4.7	-4.4	7.4	4.4	93.5	48	110	142	62.1	99.5	121	102	93.8	135
O=c1c(-c2ccc(O)cc2)coc2cc(O)ccc12 [Daidzein]	-0.4	1.7	-19.8	8.5	-15.2	35.1	10	-26.7	50.3	29.3	151	71.1	96.2	135	128	109	136	130	93.9	126
Clc1ccc2c(c1)C(N1CCNCC1)=Nc1ccccc1O2 [Amoxapine]	-20.9	-11.7	-26.3	2.2	12.4	6.9	4.7	2.3	49.7	16.7	101	85.5	70.2	129	68.9	91	95.5	104	88	81.6
NC[C@@H](O)c1ccc(O)c(O)c1 [L(-)-Norepinephrine bitartrate]	-1.8	-5.4	-11.5	7.6	19.2	1.7	5.2	5.1	0.8	30.6	101	120	114	81.3	95.6	96.1	119	75	104	96.1
COc1ccc(Cl)cc1C(=O)NCCc1ccc(S(=O)(=O)NC(=O)NC2CCCCC2)cc1 [Glibenclamide]	-4.6	-25.6	0.8	-20.2	6.4	-9.8	8.6	-8.4	33.5	4.8	121	121	80.6	144	105	92.6	134	120	104	139

Single entries from the list:
For loss of total cells (Human fetal astrocytes [1]; 22.22 µM) [%], CCN(CC)CCNC(=O)c1cc(Cl)c(N)cc1OC [Metoclopramide hydrochloride] has 18.7
For synaptosome phagocytosis (Human fetal astrocytes [3]; 22.22 µM) [%], Fc1ccc([C@@H]2CCNC[C@H]2COc2ccc3c(c2)OCO3)cc1 [Paroxetine hydrochloride hemihydrate (MW = 374.83)] has 52.6
